Some of the results follow.
Compound: Cc1cc(ccc1-c1ccccc1)C(=O)N1CCCN(CC1)C(=O)CCl [compound 10]
Experiment: probe-labelled cysteine peptide fold change vs DMSO (competition) (log2 fold change); higher = less target engagement (more negative = stronger competition)
Details: 10 µM; THP-1; incubation time: 4 h
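Further: competitive profiling in live THP-1 cells: cysteine peptides tagged with an iodoacetamide desthiobiotin (IA-DTB) probe, intensity after compound treatment relative to DMSO-treated cells.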

Target | probe-labelled cysteine peptide fold change
NAE1_Q13564_153_LADVLWNSQIPLLICR (UniProt Q13564) | 0.0606
NAXE_Q8NCW5_127_SPPTVLVICGPGNNGGDGLVCAR (UniProt Q8NCW5) | 0.093
MYO9B_Q13459_234_RVNQCIVISGESGSGK (UniProt Q13459) | 0.0998
NAA10_P41227_194_GNSPPSSGEACR (UniProt P41227) | 0.00916
NAA16_Q6N069_221_QICDKLLVEEIK (UniProt Q6N069) | 0.143
NCEH1_Q6PIU2_345_TYILTCEHDVLR (UniProt Q6PIU2) | -0.0189
NAP1L4_Q99733_250_ADPFSFEGPEIVDCDGCTIDWK (UniProt Q99733) | 0.205
NCAPH_Q15003_267_TAASFDECSTAGVFLSTLHCQDYR (UniProt Q15003) | -0.42
NBR1_Q14596_505_TDDLTCQQEETFLLAK (UniProt Q14596) | -0.0532
NBEAL2_Q6ZNJ1_2335_ALEGIISNFGQTPCQLLK (UniProt Q6ZNJ1) | -0.107
NCAM1_P13591_96_CVVTGEDGSESEATVNVK (UniProt P13591) | -0.282
NAE1_Q13564_483_DDYVHEFCR (UniProt Q13564) | 0.0669
NCAPG_Q9BPX3_177_DDECPVVNAYATLIENDSNPEVR (UniProt Q9BPX3) | -0.241
MYO6_Q9UM54_1236_QMELHPDKPPILLVAGKDDMEMCELNLEETGLTR (UniProt Q9UM54) | -0.327
NCAPH_Q15003_397_EPCQVQSCQEEMISLGDGDIR (UniProt Q15003) | -0.654

Look-ups from the entries so far:
probe-labelled cysteine peptide fold change with NAXE_Q8NCW5_127_SPPTVLVICGPGNNGGDGLVCAR (UniProt Q8NCW5) reads 0.093
probe-labelled cysteine peptide fold change with NBR1_Q14596_505_TDDLTCQQEETFLLAK (UniProt Q14596) reads -0.0532
